These are yes or no findings as the source states them, for the method shown. Some binding calls cover weakened binding; strength is not graded here.
Experiments:
hD1D2-CaM (human) [1] = target: T1, hD1D2-CaM (human) (UniProt Q9HCN6+P0DP23); test: ELISA
hD1D2-CaM (human) [2] = target: T1, hD1D2-CaM (human); test: recap of ELISA and ligand binding results
hD1D2-CaM (human) [3] = target: T1, hD1D2-CaM (human); test: capture ELISA (BSA-N9A), bacterial supernatant
hD1D2-CaM (human) [4] = target: T1, hD1D2-CaM (human); test: resonant mirror biosensor, immobilised hD1D2-CaM
hD1D2-CaM (human) [5] = target: T1, hD1D2-CaM (human); test: capture ELISA, supernatant of scFv expressed from pUC119
hD1D2-CaM (human) [6] = target: T1, hD1D2-CaM (human); test: direct ELISA, bacterial supernatant, directly coated antigen
hD1D2-CaM (human) [7] = target: T1, hD1D2-CaM (human); test: resonant mirror biosensor, sequential addition without washing
mD1D2-CaM (murine) [8] = target: T2, mD1D2-CaM (murine) (UniProt P0C191+P0DP23); test: screening ELISA
[9] = target: hD1D2 triple mutant (human) (UniProt Q9HCN6); test: ELISA on hD1D2 mutants
mD1D2-CaM (murine) [10] = target: T2, mD1D2-CaM (murine); test: capture ELISA, bacterial supernatant
mD1D2-CaM (murine) [11] = target: T2, mD1D2-CaM (murine); test: capture ELISA, purified scFv at 10 µg/ml

Sequences of proteins named here, by UniProt entry; tags and fusion partners are left off. A change or cut given only in a name is not applied to a line headed by its entry. A line that says so, or that is headed by a name, gives the form on record, which may keep a tag or linker.
hD1D2 triple mutant (Q9HCN6, form named): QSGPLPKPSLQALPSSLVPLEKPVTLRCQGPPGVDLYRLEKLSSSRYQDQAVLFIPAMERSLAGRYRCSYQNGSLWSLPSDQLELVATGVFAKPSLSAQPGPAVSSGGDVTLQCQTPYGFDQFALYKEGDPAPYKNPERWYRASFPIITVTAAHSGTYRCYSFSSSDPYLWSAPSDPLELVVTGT
UniProt P0C191: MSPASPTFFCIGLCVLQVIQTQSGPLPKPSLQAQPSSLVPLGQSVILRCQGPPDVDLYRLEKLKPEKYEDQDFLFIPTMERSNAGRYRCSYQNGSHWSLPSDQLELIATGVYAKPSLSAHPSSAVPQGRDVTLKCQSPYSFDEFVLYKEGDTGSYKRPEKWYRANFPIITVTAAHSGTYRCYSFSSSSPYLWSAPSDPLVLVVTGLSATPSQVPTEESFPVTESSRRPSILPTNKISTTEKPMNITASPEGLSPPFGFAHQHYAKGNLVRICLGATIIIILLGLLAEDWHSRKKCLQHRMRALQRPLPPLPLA

Measured: binding

B1: scFv 10B12 (scFv, V domains shown)
VH: EVQLVQSGGGVVQPGGSLRLSCAASGFTFSSYGMHWVRQAPGKGLEWVAFIRYDGSNKYYADSVKGRFTISRDNSKNTLYLQMNSLRAEDTAVYYCTDGWAEMATTDDAFDIWGRGTMVTV
VL: DIQMTQSPSTLSASIGDRVTITCRASEGIYHWLAWYQQKPGKAPKLLIYKASSLASGAPSRFSGSGSGTDFTLTISSLQPDDFATYYCQQYSNYPLTFGGGTKLEIK
binds: hD1D2-CaM (human) [1] | hD1D2-CaM (human) [2] | hD1D2-CaM (human) [3] | hD1D2-CaM (human) [4] | hD1D2-CaM (human) [5] | hD1D2-CaM (human) [6] | hD1D2-CaM (human) [7]

B2: scFv 1C3 (scFv, V domains shown)
VH: QVQLQQSGAEVKKPGESLKISCQASGYSFSSYWIAWVRQMPGKGLELMGIIYPGDSDARYSPSFQGQVTFSADKSINTAYLQWSSLKASDTAMYYCARQGKTGSYYFGAFDVWGQGTMVTVSS
VL: QSVLTQPPSMSAAPGQKVTISCTGTSSDVGGYNYVSWYQQHPGKAPKLMLFEVSHRPSGVSNRFSGSKSDNTASLTISGLQAEDEADYYCSSYTGSSTWVFGGGTKVTVL
binds: mD1D2-CaM (murine) [8] | [9] | mD1D2-CaM (murine) [10] | mD1D2-CaM (murine) [11] | hD1D2-CaM (human) [3] | hD1D2-CaM (human) [4] | hD1D2-CaM (human) [5] | hD1D2-CaM (human) [6] | hD1D2-CaM (human) [7]
